Results deposited as PubChem BioAssay AID1159584 (Peter MacCallum Cancer Centre, 2016).
Here is an unselected part of about 18,000 deposited reagents. Further read-outs or replicates are left out here. Reagent sequences are not shown. Not given: the amount of reagent, the time to read-out.

Purpose: 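Genes that CDH1-null MCF10A cells selectively depend on to survive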 (primary screen)
Cell system: human MCF10A breast epithelial cells, parental and CDH1-null
Reagent: siRNA against human genes
Measurement: 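ATP luminescence (CellTiter-Glo) viability per line relative to mean mock wells over all plates, and the ratio of CDH1-null to parental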
Direction: CDH1-null / parental viability ratio: higher = CDH1-null cells survive relatively better than parental

What is on record for GRHL3 (GeneID 57822) [SID134318205]?
CDH1-null / parental viability ratio: 1.08

What is on record for CASTOR3P (GeneID 352954) [SID152153971]?
CDH1-null / parental viability ratio: 0.9

What is on record for RAPGEF6 (GeneID 51735) [SID152149413]?
CDH1-null / parental viability ratio: 0.71

Which result is listed for MAPK13 (GeneID 5603) [SID56478704]?
CDH1-null / parental viability ratio: 1.01

Taken from above.
Result of RAPGEF6 (GeneID 51735) [SID152149413] in “CDH1-null / parental viability ratio”: 0.71
Under “CDH1-null / parental viability ratio”, CASTOR3P (GeneID 352954) [SID152153971] has 0.9

More results follow.
What did the screen give for TRIL (GeneID 9865) [SID152149919]?
CDH1-null / parental viability ratio: 0.8

How did the screen score STK11 (GeneID 6794) [SID152153881]?
CDH1-null / parental viability ratio: 0.79

For ZNF512B (GeneID 57473) [SID134318129], what was measured?
CDH1-null / parental viability ratio: 0.89

Which result is listed for TAAR5 (GeneID 9038) [SID152153773]?
CDH1-null / parental viability ratio: 1.19

What did the screen give for PRPF40B (GeneID 25766) [SID134317062]?
CDH1-null / parental viability ratio: 0.81

What is on record for DPF2 (GeneID 5977) [SID134310476]?
CDH1-null / parental viability ratio: 0.93

With OR4D9 (GeneID 390199) [SID135624858], how do the results read?
CDH1-null / parental viability ratio: 1.12

Which result is listed for NXPH4 (GeneID 11247) [SID152152959]?
CDH1-null / parental viability ratio: 0.74

For PTPN7 (GeneID 5778) [SID134313269], what does the deposit list?
CDH1-null / parental viability ratio: 1.56

For LRP1 (GeneID 4035) [SID152152766], what was measured?
CDH1-null / parental viability ratio: 1.13
